## Screening data

By UniProt entry, the sequences of proteins in these tests, tags left out.
UniProt P04062, whole entry, target on record: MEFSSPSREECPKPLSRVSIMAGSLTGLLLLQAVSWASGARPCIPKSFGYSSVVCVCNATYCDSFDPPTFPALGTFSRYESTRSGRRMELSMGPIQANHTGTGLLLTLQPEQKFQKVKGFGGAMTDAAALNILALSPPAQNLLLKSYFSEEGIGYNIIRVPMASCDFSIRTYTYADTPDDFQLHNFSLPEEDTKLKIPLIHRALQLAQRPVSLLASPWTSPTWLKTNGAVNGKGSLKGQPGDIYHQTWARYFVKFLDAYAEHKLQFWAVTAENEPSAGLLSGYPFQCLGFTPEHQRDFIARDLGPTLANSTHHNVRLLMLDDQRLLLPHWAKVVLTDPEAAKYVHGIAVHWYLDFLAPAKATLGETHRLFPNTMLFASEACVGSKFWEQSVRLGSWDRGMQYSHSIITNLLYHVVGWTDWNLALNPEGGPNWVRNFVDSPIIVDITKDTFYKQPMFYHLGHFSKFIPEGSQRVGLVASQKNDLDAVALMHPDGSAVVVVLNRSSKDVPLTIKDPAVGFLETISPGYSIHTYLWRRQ

From PubChem BioAssay record AID360 (NCATS, 2006).

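Purified human glucocerebrosidase was tested for inhibition by reading red fluorescence from a resorufin glucoside substrate after 20 minutes at room temperature. Each compound was run as a titration series spanning about 0.6 nM up to 50 µM final. The number is the fitted half-maximal concentration (AC50); a lower value means a more potent inhibitor. The record treats a '>' qualifier as no measurable activity (inactive); no explicit numeric cut-off is stated.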

Values are in µM. All entries here are filed as inactive. Only inactive entries are shown; hits are left out here.

{"compound": "COc1cc(-c2c(C#N)c(N)nc(SCc3ccncc3)c2C#N)cc(OC)c1OC", "fitted potency (µM)": ">76.9"}
{"compound": "CCN1C(=O)CSc2ccc(C(=O)NC3CCCCC3)cc21", "fitted potency (µM)": ">76.9"}
{"compound": "Cc1cccc(C(=O)N(C)c2nnc(-c3ccncc3)s2)c1", "fitted potency (µM)": ">76.9"}
{"compound": "O=C(Nc1nc(-c2ccncc2)cs1)c1ccc(S(=O)(=O)N2CCOCC2)cc1", "fitted potency (µM)": ">76.9"}
{"compound": "Cc1onc(-c2c(F)cccc2Cl)c1C(=O)OCC(=O)NCc1ccco1", "fitted potency (µM)": ">76.9"}
{"compound": "CC(=O)N(c1cccc(Br)c1)C1C=CS(=O)(=O)C1", "stereo": "centres unmarked", "fitted potency (µM)": ">76.9"}
{"compound": "Clc1cccc(-c2cc3nc4c(c(N5CCOCC5)n3n2)CCCC4)c1", "fitted potency (µM)": ">76.9"}
{"compound": "C=CCn1c(SCC(=O)NCc2cccs2)nnc1C1CCCCC1", "fitted potency (µM)": ">76.9"}
{"compound": "O=C(C1CCCN(S(=O)(=O)c2cccc3nsnc23)C1)N1CCN(c2ccccn2)CC1", "stereo": "centres unmarked", "fitted potency (µM)": ">76.9"}
{"compound": "O=C1CC(c2cccs2)c2cc3c(cc2N1)OCO3", "stereo": "centres unmarked", "fitted potency (µM)": ">76.9"}
{"compound": "CC(C)(C#N)Nc1ccccc1", "fitted potency (µM)": ">76.9"}
{"compound": "CCCC(=O)c1c(NC(C)C)cc(C)oc1=O", "fitted potency (µM)": ">76.9"}
{"compound": "O=C(NCc1cccnc1)c1cc(-c2cccs2)on1", "fitted potency (µM)": ">76.9"}
{"compound": "CC(=O)N(CCc1ccccc1C)Cc1cc2cc3c(cc2[nH]c1=O)OCO3", "fitted potency (µM)": ">76.9"}
{"compound": "CCOCCc1nnc(NC(=O)c2ccc(OC)c(OC)c2)s1", "fitted potency (µM)": ">76.9"}
{"compound": "COc1cc(CCC(=O)OCc2nnc(-c3ccccc3)o2)cc(OC)c1OC", "fitted potency (µM)": ">76.9"}
{"compound": "Cc1cnc(C(=O)Nc2ccc(-n3cnnn3)cc2)cn1", "fitted potency (µM)": ">76.9"}
{"compound": "O=C(Nc1ccc(F)c(F)c1)c1cccnc1", "fitted potency (µM)": ">76.9"}
{"compound": "Cc1ccc(-c2nc(=S)c3c(n2CCN2CCOCC2)CC(C)(C)OC3)cc1", "fitted potency (µM)": ">76.9"}
{"compound": "O=C(Nc1ccncc1)c1cc2ccccc2oc1=O", "fitted potency (µM)": ">76.9"}
{"compound": "COC(=O)C1=C(C)NC(=O)NC1c1ccc(OCC(=O)N2CCCCC2)cc1", "stereo": "centres unmarked", "fitted potency (µM)": ">76.9"}
{"compound": "COc1ccc(CCN(Cc2nc3ccccc3c(=O)[nH]2)C(=O)c2ccco2)cc1OC", "fitted potency (µM)": ">76.9"}
{"compound": "COc1cc(-c2nc(S(=O)(=O)c3ccc(Cl)cc3)c(N(C)C)o2)cc(OC)c1OC", "fitted potency (µM)": ">76.9"}
{"compound": "CCCNC(=O)COC(=O)c1ccc(S(=O)(=O)N2CCCCCC2)cc1", "fitted potency (µM)": ">76.9"}
{"compound": "CCC(O)(CCN1CCCCC1)c1ccccc1", "stereo": "centres unmarked", "fitted potency (µM)": ">76.9"}
{"compound": "COc1ccc(C)cc1S(=O)(=O)NC1CCCCC1C", "stereo": "centres unmarked", "fitted potency (µM)": ">76.9"}
{"compound": "O=C(NCc1ccc2c(c1)OCO2)C1CCN(c2ncccn2)CC1", "fitted potency (µM)": ">76.9"}
{"compound": "CCOC(=O)C1=C(C)NC2=C(C(=O)C(C(=O)OC)C(C)C2)C1c1ccc(OC)c(O)c1", "stereo": "centres unmarked", "fitted potency (µM)": ">76.9"}